Structures can show the parent of a compound that is named as a salt.
Key:
[1] = tested on: HepG2 cells; assay: Image based high content analysis (HCA), fixed and live assays, in HepG2; settings: ratio of minimal effective concentration to Cmax
Protocol: Briefly, the cells were grown in DMEM supplemented with 10% heat inactivated FBS, 1% penicillin-streptomycin (PEST), 1% sodium pyruvate, and 1% nonessential amino acids. Cells were passaged at 1 : 8 or 1 : 6 every 3-4 days when they reach 75–80% confluence. Seeding density was optimized for HCA application to ensure that the cells were in a monolayer (5000 cells per well in 96-well plates) for precise imaging. The cells were grown for 48 h to attach and stabilize. The experiments performed with HepG2 cells were designed to ensure that each assay was performed with cells in a similar growth phase.
Each concentration was assayed in triplicate wells. […] The experimental process is illustrated in Figure 2.
And finally, TOTO-3 was used for assessing PMP.
The cells were imaged using an Olympus ScanR system.
All other fluorescence signals were considered as subobjects.

[2] = tested on: hiPSC derived hepatocytes (hiPS-HEP); assay: Image based high content analysis (HCA), fixed and live assays, in hiPSC derived hepatocytes; settings: 48 h;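 also: hiPS-HEP obtained from ChiPSC4 through definitive endoderm under serum- and feeder-free conditions in 96-well plates, fluorescence imaging, each concentration run in triplicate wells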
[3] = plasma; no reference given; read-out: C max (maximum plasma concentration of the drug); cited from earlier work
[4] = tested on: hiPSC derived hepatocytes (hiPS-HEP); settings: human, 48 h;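 also: hiPS-HEP obtained from ChiPSC4 through definitive endoderm under serum- and feeder-free conditions in 96-well plates, fluorescence imaging, each concentration run in triplicate wells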

Concentrations at which phospholipids were not detected (higher than) [4]: higher than 40 μM
Doses at which hyperpolarization of mitochondrial membrane was detected (up to); MMP dropped at higher doses [4]: up to 40 μM
Increase in number of lipid droplets compared to control [4]: 18 fold
SMILES: CCCCc1oc2ccccc2c1C(=O)c1cc(I)c(OCCN(CC)CC)c(I)c1 [Amiodarone, amiodarone hydrochloride]
TR (toxicity risk) [1]: 1.8
IC50/EC50 Nucleus Area ([2]; fixed assay): 2.2 µM
IC50/EC50 Nucleus MI ([2]; fixed assay): 95.7 µM
IC50/EC50 Phospholipidosis Area ([2]; fixed assay): 4.5 µM
IC50/EC50 Nucleus Area ([2]; live assay): 10.4 µM
IC50/EC50 PMP MI ([2]; live assay): 42.2 µM
Cmax [3]: 2200 nM
TR (toxicity risk) [4]: 5.7
